Measured values from PubChem BioAssay AID2685 (National Center for Advancing Translational Sciences (NCATS), 2010).
Some of the results follow. The main result of the screen is listed elsewhere. These columns were measured beside it and carry no call. Most of these compounds were active or inconclusive in the main read-out, so they are no random draw. Words in brackets tell the shape of the fitted curve; partial curves, single points and poor fits give uncertain potencies.

Assay: qHTS Assay for Lipid Storage Modulators in Drosophila S3 Cells;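 on cell number change: cells counted by Cell Tracker Red CMTPX staining in the red channel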
Details: BODIPY lipid droplet fluorescence, 18-24 h; for cell number change: measured here: cell count max response, cells fed with added oleic acid
How it was run: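 Laser-scanning cytometry quantifies lipid droplet accumulation (500–530 nm total intensity; droplet/cell object ratio) in oleic acid-fed (400 uM added) Drosophila S3 cells treated with a concentration series. 20 uM Triacsin C defined 100% inhibition.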

[1] = measured here: lipid fluorescence (Fed channel) AC50, cells fed with added oleic acid
[2] = measured here: cell number channel AC50, cells fed with added oleic acid

Structure (SMILES)	cell number change	AC50 [1]	AC50 [2]
COc1cccc(S(=O)(=O)Nc2ccc3sc(C)nc3c2)c1	-13.9%	6.51 µM [rising, single point]	–
COc1ccc(C2SCC(C(=O)NCc3ccc(F)cc3)N2C(C)=O)cc1 (centres undefined)	34.8%	–	32.6 µM [rising, single point]
O=C(NCc1ccc(N2CCCC2=O)cc1)c1cn(CCc2ccccc2)nn1	27.2%	–	–
CSc1sc(C(=O)N(C)C)cc1S(=O)(=O)C(C)C	16.6%	6.51 µM [rising, partial curve, poor fit]	–
CC(=O)C1=C(C)NC(SCC(=O)c2ccccc2)=C(C#N)C1c1ccco1 (centres undefined)	-21.8%	0.731 µM [rising, single point]	–
O=C(CN1CCN(S(=O)(=O)c2ccc(Cl)s2)CC1)NCc1ccc(Cl)cc1	1.85%	–	–
CN(C)c1ccc(C(=O)N/N=C/c2cc(Br)cc(Br)c2O)cc1	-30.6%	–	1.3 µM [falling, full curve, poor fit]
CCOc1cc(N2CCOCC2)c(OCC)cc1NC(=O)c1ccc(F)c(S(=O)(=O)N2CCOCC2)c1	20.5%	–	–
COc1cc(CNCc2cccs2)ccc1OCC(N)=O	1.72%	2.06 µM [rising, partial curve, poor fit]	–
C=CCn1c(N)c(C(=O)Nc2ccc(C)cc2)sc1=S	-1.07%	0.259 µM [rising, partial curve, poor fit]	–
CCC(=O)N1CCN(c2ccc(NC(=O)c3ccc(-c4ccccc4)cc3)cc2)CC1	-47.2%	25.9 µM [falling, single point]	25.9 µM [falling, single point]
Nc1ccc2oc(-c3cccs3)nc2c1	-13.3%	0.291 µM [rising, full curve]	–
COc1cccc(-c2cc(C(=O)N3CCCCCC3)no2)c1	31%	–	18.4 µM [rising, partial curve]
COCCn1c(Cc2ccccc2)nnc1SCC(=O)N(C)C	2.02%	18.4 µM [falling, single point]	–
CNc1ncc(C(=O)c2ccc(-c3ccccc3)cc2)s1	-1.93%	–	–
CC(=O)Nc1ccc(S(=O)(=O)N2CCN(S(=O)(=O)N3CCCCC3)CC2)cc1	–	6.51 µM [rising, partial curve, poor fit]	2.91 µM [rising, single point]
Cc1ccc(N2C(=O)CC(N3CCN(c4ccccn4)CC3)C2=O)cc1 (centres undefined)	12.1%	1.46 µM [rising, full curve, poor fit]	–
CC(C)CSC1=NSC2=NC(=O)/C(=C\c3ccccc3)C(=N)N12	7.86%	2.91 µM [falling, partial curve]	–
CCCCn1c(N)c(N(CCC(C)C)C(=O)c2ccc([N+](=O)[O-])s2)c(=O)[nH]c1=O	-16.3%	–	–
CC(C)SC1=NC(C)(C)C=C(/C=C/c2c(Cl)cccc2Cl)N1	94.8%	–	0.231 µM [rising, full curve, poor fit]
CCc1noc(C)c1C(=O)Nc1ccc(C)c(S(=O)(=O)N2CCCCCC2)c1	40.7%	0.92 µM [rising, partial curve]	3.26 µM [rising, full curve]

Structure (SMILES)	cell number change	AC50 [1]	AC50 [2]
S=C(NCc1ccc2c(c1)OCO2)Nc1ccc2nsnc2c1	–	4.11 µM [rising, partial curve, poor fit]	–
c1ccc(Cn2cc(CN3CCCO3)c(-c3ccc4c(c3)OCO4)n2)cc1	33.6%	4.61 µM [rising, full curve, poor fit]	–
C=CCN(C(=O)Nc1ccc(OC)cc1)c1nnc(-c2ccncc2)s1	-1.75%	–	–
COC(=O)c1cccc(NC(=O)c2cc3sccc3n2C)c1	-18.4%	–	–
Cc1ccc(NC(=O)c2ccc3c(c2)NC(=O)CS3)nc1	–	29.1 µM [rising, single point]	–
Cc1ncc(C[n+]2ccc(C)c(C)c2)c(N)n1	-1.13%	29.1 µM [rising, single point]	–
CSc1ccc(/C=N/NC(=O)c2cccc(Cl)c2)cc1	11.6%	–	2.59 µM [rising, partial curve]
Cc1ccccc1-c1nc(CS(=O)CC(=O)NCCCN(C)c2ccccc2)c(C)o1 (centres undefined)	-15.6%	–	–
O=[N+]([O-])c1ccc2c(c1)OCCOCCOCCOCCOCCOCCO2	-10.4%	0.651 µM [falling, full curve, poor fit]	–
Cc1cc(C(=O)COC(=O)c2ccc(N)c([N+](=O)[O-])c2)c(C)n1Cc1ccc2c(c1)OCO2	14.3%	0.326 µM [rising, full curve, poor fit]	–
Cc1cccc2cc(C#N)c(SCC(=O)N3CCC(C)CC3)nc12	-20.6%	6.51 µM [rising, single point]	–
O=C(NCCCN1CCOCC1)c1cc2ccccc2cc1O	52.9%	–	25.9 µM [rising, single point]
CCC(CC)NC(=O)Cc1ccccc1[N+](=O)[O-]	-56.7%	14.6 µM [falling, partial curve]	11.6 µM [falling, partial curve]
COc1ccccc1NC(=O)CSc1nn2c(=O)c(C)nnc2s1	-0.578%	18.4 µM [rising, partial curve]	–
Cc1ccc(C)c(-c2csc(-c3cccnc3)n2)c1	-19.9%	–	–
Cc1ccc(S(=O)(=O)Nc2ccc(S(=O)(=O)NCC3CCCO3)cc2)cc1 (centres undefined)	13.5%	0.58 µM [falling, single point]	–
Cc1ccc([N+](=O)[O-])c2c1C(N1CCCCC1)C(C)(C)O2 (centres undefined)	-50.7%	2.31 µM [falling, full curve]	5.8 µM [falling, full curve, poor fit]
O=C(NCCN1CCOCC1)C1CCN(c2ncnc3c2sc2cccc(F)c23)CC1	18.8%	16.4 µM [rising, single point]	–
CC(=O)Nc1ccc(-c2nnc(SCC(=O)n3c4c(c5ccccc53)CCCC4)n2C)cc1	190%	6.51 µM [rising, partial curve]	6.51 µM [rising, full curve]
O=S(=O)(Cc1ccccc1)N1CCN(Cc2ccc3c(c2)OCO3)CC1	-20.7%	–	–
COc1cccc(NC(=O)c2oc3ccccc3c2NC(C)=O)c1	-24%	32.6 µM [falling, partial curve]	–

Molecules listed so far containing a cyano group:
Structure (SMILES)	cell number change	AC50 [1]	AC50 [2]
CC(=O)C1=C(C)NC(SCC(=O)c2ccccc2)=C(C#N)C1c1ccco1 (centres undefined)	-21.8%	0.731 µM [rising, single point]	–
Cc1cccc2cc(C#N)c(SCC(=O)N3CCC(C)CC3)nc12	-20.6%	6.51 µM [rising, single point]	–

Further structures.

Structure (SMILES)	cell number change	AC50 [1]	AC50 [2]
COc1ccc(CCNC(=O)c2cc(-c3ccccc3)c(N3CCOCC3)s2)c(OC)c1OC	2.02%	0.13 µM [falling, full curve, poor fit]	–
CN(C)CCNC(=O)c1cc(Br)ccc1Cl	134%	–	–
N#Cc1cccc(CN2CCCN(Cc3ccc(F)cc3)S2(=O)=O)c1	13.5%	0.651 µM [rising, full curve, poor fit]	–
Cc1ccccc1OCCOc1cccc(/C=N/NC(=O)Cc2nnc(N)s2)c1	-72.1%	29.1 µM [falling, partial curve, poor fit]	29.1 µM [falling, single point]
COc1ccc([C@H]2CC(=O)C=C(c3cccc4c3Oc3ccccc3S4)C2)cc1	-17.1%	0.092 µM [falling, single point]	–
NC(=S)NN=C1C2CC3CC(C2)CC1C3	23.7%	13 µM [falling, single point]	0.0231 µM [falling, full curve, poor fit]
O=C(Cc1ccccc1[N+](=O)[O-])OCN1C(=O)c2ccccc2C1=O	-19.9%	–	–
NC(=O)CSc1nc(-c2ccccc2)nc2c1CCCC2	2.91%	0.00651 µM [falling, full curve, poor fit]	–
COc1ccc(NC(=O)c2cc(C)no2)cc1	-16.2%	–	–
CC(C)OCCCNC(=O)CN1CCN(Cc2ccc(Cl)cc2)C1=O	16.7%	1.03 µM [falling, full curve]	–
COc1ccc(-c2cc(C(F)(F)F)nc(S(C)(=O)=O)n2)cc1OC	-55.8%	–	29.1 µM [falling, single point]
C/C(=N/N1CCN(c2ccccc2)CC1)c1cccc([N+](=O)[O-])c1	30.4%	18.4 µM [rising, single point]	18.4 µM [rising, single point]
COC(=O)Nc1nc(Sc2ncc(C(F)(F)F)cc2Cl)n[nH]1	41.4%	20.6 µM [falling, single point]	18.4 µM [rising, single point]
O=S(=O)(Nc1ccc(S(=O)(=O)Nc2ncccn2)cc1)c1ccc(Cl)cc1	-6.35%	–	–
S=C(NCc1ccc2c(c1)OCO2)Nc1ccc(-c2nc3ccccc3[nH]2)cc1	2.99%	1.03 µM [rising, full curve]	2.31 µM [rising, partial curve]
Cc1ccc2nc(-c3ccccn3)cc(C(=O)NC(C)C(C)(C)C)c2c1 (centres undefined)	-112%	–	–
CC(=O)NCCCc1nc2ccccc2n1Cc1cc(C)ccc1C	-16%	0.00651 µM [falling, full curve]	0.00517 µM [falling, full curve]
O=C(COc1ncnc2ccccc12)N1CCN(c2ccccc2)CC1	22.2%	29.1 µM [rising, single point]	–
COC(=O)c1cc(C(=O)OC)cc(N2C(=O)CC(N3CCN(c4ccccc4)CC3)C2=O)c1 (centres undefined)	-13.3%	–	–
Cc1ccc(C(=O)/C=C/c2ccc3ncccc3c2)cc1	-54%	–	32.6 µM [falling, single point]
Cc1ccc(C)c(NC(=O)CN(C)C(=O)c2oc3c(Cl)cccc3c2C)c1	14.6%	20.6 µM [rising, partial curve]	–

One compound at a time, from the list above. Values in the order: cell number change | AC50 [1] | AC50 [2]
CC(C)OCCCNC(=O)CN1CCN(Cc2ccc(Cl)cc2)C1=O as listed: 16.7% | 1.03 µM [falling, full curve] | –
S=C(NCc1ccc2c(c1)OCO2)Nc1ccc(-c2nc3ccccc3[nH]2)cc1 as listed: 2.99% | 1.03 µM [rising, full curve] | 2.31 µM [rising, partial curve]
